Assay results as given in paper PMC10177872.
These are yes or no findings as the source states them, for the method shown. Binding seen in cells or lysates may run through a third protein. A yes stands for co-enrichment or nearness to the bait. Other partners may have been found.

Amino acid sequences for entries named in this document (tags omitted). A change or cut given only in a name is not applied to a line headed by its entry.
UniProt Q60710: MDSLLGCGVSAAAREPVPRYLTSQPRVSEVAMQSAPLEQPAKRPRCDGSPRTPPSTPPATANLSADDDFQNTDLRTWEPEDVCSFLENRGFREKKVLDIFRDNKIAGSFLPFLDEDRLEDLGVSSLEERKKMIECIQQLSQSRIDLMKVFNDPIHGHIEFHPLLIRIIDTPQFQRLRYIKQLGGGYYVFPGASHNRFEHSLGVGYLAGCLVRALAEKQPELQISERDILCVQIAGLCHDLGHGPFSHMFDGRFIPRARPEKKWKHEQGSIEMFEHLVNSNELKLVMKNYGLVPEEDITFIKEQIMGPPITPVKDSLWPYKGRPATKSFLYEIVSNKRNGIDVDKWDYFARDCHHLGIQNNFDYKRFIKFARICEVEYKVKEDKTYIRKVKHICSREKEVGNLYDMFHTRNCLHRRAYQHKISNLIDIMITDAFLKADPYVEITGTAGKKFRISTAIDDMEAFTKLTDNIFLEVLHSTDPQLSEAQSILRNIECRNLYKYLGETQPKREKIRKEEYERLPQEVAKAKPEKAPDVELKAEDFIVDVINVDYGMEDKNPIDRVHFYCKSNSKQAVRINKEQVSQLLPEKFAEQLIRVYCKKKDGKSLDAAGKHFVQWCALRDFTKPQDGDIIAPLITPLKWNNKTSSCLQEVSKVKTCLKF
UniProt Q60932: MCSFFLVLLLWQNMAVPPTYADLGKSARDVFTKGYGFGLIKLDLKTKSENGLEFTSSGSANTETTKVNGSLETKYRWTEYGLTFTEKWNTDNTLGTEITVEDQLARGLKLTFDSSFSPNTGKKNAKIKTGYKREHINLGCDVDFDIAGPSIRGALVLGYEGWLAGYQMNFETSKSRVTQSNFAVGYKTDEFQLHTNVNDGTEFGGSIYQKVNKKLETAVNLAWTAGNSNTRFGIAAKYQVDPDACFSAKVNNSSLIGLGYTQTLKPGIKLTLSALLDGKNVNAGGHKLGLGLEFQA

Target: SAM and HD domain-containing deoxynucleoside triphosphate triphosphohydrolase 1 (SAMHD1) (mouse (endogenous in RAW264.7)) (UniProt Q60710)
Assay: affinity purification with mass spectrometry; IP with SAMHD1 antibodies and protein A/G agarose beads from non-denatured lysates of RAW264.7 cells; lanes cut from Bis-Tris gels for mass spectrometry

For “voltage-dependent anion channel-1 (VDAC1) (from UniProt Q60932)”, the binding was “binds”.
